PubChem BioAssay AID2685 (National Center for Advancing Translational Sciences (NCATS), 2010)
Out of some 320,000 compounds screened, about 2,100 (0.66%) were called active. This list was built around the results that the source calls inconclusive (neither active nor inactive); the mix of calls is not that of the screen. Calls follow the shape of the dose curve; as a rule, active = well fitted inhibition curve with a large enough effect in the signal ratio, with a control signal flat (not every such curve was filed as active); inconclusive = small, poorly fitted or top-dose-only effect, or effect the other way, or a change in a side signal; inactive = flat fitted curve, though single readings scatter; the % refers to the signal ratio. Potencies beside an inconclusive call are fits to weak or partial responses and may not hold up.

assay: qHTS Assay for Lipid Storage Modulators in Drosophila S3 Cells; conditions: BODIPY lipid droplet fluorescence, 18-24 h, cells fed with added oleic acid; lipid storage change, negative = inhibition: at 46.1 µM (top of the series) unless noted
Outline: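 Drosophila S3 cells got compounds at several concentrations plus oleic acid (400 uM solution). Laser-scanning cytometry with 488 nm excitation read lipid droplets at 500-530 nm and cells at 575-640 nm. Percent activity was relative to 20 uM Triacsin C.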
% is scaled to controls: 0 for no effect and ±100 for the full control effect; potency is read from the fitted curve at half-maximal effect.

SMILES	Potency	lipid storage change, negative = inhibition
CCN(CC)C(=O)CSc1ncnc2c1cnn2Cc1ccccc1	inconclusive: 0.651 µM [activator, full curve, poor fit]	–
CCN(CC)CCC(=O)N1c2ccccc2CCc2ccc(NC(=O)OC(C)C)cc21	–	inconclusive: -13.1%
C/C(CC(=O)N1CCN(C=O)CC1)=N\NC(=O)c1ccc([N+](=O)[O-])cc1	inconclusive: 20.6 µM [falling, single point]	–
O=C(CN1CCN(Cc2ccccc2)CC1)NC(=O)NC1CCCCC1	–	inconclusive: -20.6%
S=C(NCCNCc1ccccc1)NC1CCCCC1	–	inconclusive: 30%
CCN(CC)S(=O)(=O)c1ccc(S(=O)(=O)N2CCC(N3CCCCC3)CC2)cc1	inconclusive: 3.26 µM [falling, single point]	–
CCC1=Nc2cc(C(=O)NCc3ccco3)ccc2Sc2ccc(C)cc21	–	inconclusive: -13.6%
CCOC(=O)C1CCCN(C(=O)C(=O)Nc2ccc3nc4n(c(=O)c3c2)CCCCC4)C1 (stereo not given)	inconclusive: 14.6 µM [falling, partial curve]	–
Cc1cc(C(=O)N2CCN(c3ccccn3)CC2)c(C)o1	inconclusive: 0.731 µM [cytotoxic, full curve]	–
Cc1cccc(NC(=O)C(C)SCc2nc3sc4c(c3c(=O)[nH]2)CCCC4)n1 (stereo not given)	–	inconclusive
N#CC(C#N)=C(N)Nc1cccc(Cl)c1	–	inconclusive: -15.1%
O=C(O)c1ccccc1-c1ccccc1C(=O)Nc1ccccc1-c1ccccc1	inconclusive: 29.1 µM [activator, single point]	–
COC(=O)c1ccccc1NC(=O)N1CCCC1	–	inconclusive: 44.8%
O=C(N/N=C/c1ccccc1F)NC12CC3CC(CC(C3)C1)C2	–	inconclusive: -19.1%
Cc1ccc(C(=O)NC(C)c2ccc(F)cc2)cc1 (stereo not given)	–	inconclusive: 2.53%
COC(=O)C(CC(C)C)NC(=O)c1ccc([N+](=O)[O-])c(C)c1 (stereo not given)	inconclusive: 18.4 µM [falling, partial curve]	–
COc1ccc2nc(N3CCOCC3)cc(C)c2c1	–	inconclusive: 127%
CCCC(CCC(=O)OC)(C(=O)OCC)c1csc(N)n1 (stereo not given)	–	inconclusive: 121%
COc1cc(-c2nc(-c3ccc(Br)o3)no2)cc(OC)c1OC	–	inconclusive: 45% [activator]
O=C(O)CC1NC(=O)N(c2ccccc2)C1=O (stereo not given)	inconclusive: 29.1 µM [falling, single point]	–

Full records from above. Values in the order: Potency | lipid storage change, negative = inhibition
`S=C(NCCNCc1ccccc1)NC1CCCCC1` in the list: – | inconclusive: 30%
`CCOC(=O)C1CCCN(C(=O)C(=O)Nc2ccc3nc4n(c(=O)c3c2)CCCCC4)C1` (stereo not given) in the list: inconclusive: 14.6 µM [falling, partial curve] | –

Going on with the list.

SMILES	Potency	lipid storage change, negative = inhibition
C=CCN1CN(S(=O)(=O)c2cccc(Cl)c2)c2nc3ccccc3nc21	inconclusive: 0.0065 µM [activator, full curve, poor fit]	–
CC(=O)N(Cc1ccc(F)cc1)C1=C(NCc2ccccc2)C(=O)c2ccccc2C1=O	inconclusive: 18.4 µM [falling, single point]	–
Nc1ccc(C(=O)OCC(=O)NC(=O)c2ccccc2)cc1[N+](=O)[O-]	–	inconclusive
O=C(CCC(=O)N(CC(=O)NC1CCCC1)Cc1ccc2c(c1)OCO2)Nc1nccs1	–	inconclusive: 7.47%
CC(=O)Nc1ccc(S(=O)(=O)N2CCCN(S(=O)(=O)c3ccc(C)cc3)CC2)cc1	–	inactive: -13.6%
O=C(c1ccccc1)N1CCN(CCc2ccccc2)CC1	inconclusive: 0.517 µM [activator, partial curve, poor fit]	–
COc1cc(/C=N/NC(=O)c2ccccc2O)ccc1OC(=O)CC1SC(=O)NC1=O (stereo not given)	–	inconclusive: -21.8%
COc1ccc(C(OCC(O)CNC(C)c2ccccc2)c2ccc(OC)cc2)cc1 (stereo not given)	–	inconclusive: 200%
CCCCN(C)C(=O)C1CCN(Cc2cccc(OCc3ccccc3)c2)CC1	–	inconclusive: -45.4%
O=C(c1ccc2c(c1)OCO2)N(c1ccc(Br)cc1)C1C=CS(=O)(=O)C1 (stereo not given)	–	inconclusive: -37.5%
CCSC1=N/C(=C\c2ccccc2)C(=O)N1	inconclusive: 29.1 µM [activator, single point]	–
O=C(CSc1nc2ccccc2c(=O)[nH]1)c1ccc(O)cc1O	–	inconclusive: 44.6%
CN(C(=O)COC(=O)C1CCN(S(=O)(=O)c2c(Cl)cccc2Cl)CC1)c1ccccc1	–	inconclusive
Cc1cccc(N2CCN(C(=O)c3cccc(N4CCCC4=O)c3)CC2)c1C	–	inconclusive: -14%
CC1CC(NC(=O)Cc2ccc(Br)cc2)CC(C)(C)C1 (stereo not given)	–	inconclusive: -21.3%
CCc1c(C)nc2c(-c3ccccc3)c(C)[nH]n2c1=O	–	inconclusive: 8.4%
CC(=O)Nc1ccc(NCC(=O)c2ccccc2)cc1	inconclusive: 18.4 µM [falling, single point]	–
CC(=O)c1cccc(S(=O)(=O)N(CCCO)Cc2cc3ccc(C)cc3[nH]c2=O)c1	–	inconclusive: 28.4%
CCCCC(=O)N(CCOC)c1nnc(-c2ccc(OC)cc2)s1	inconclusive: 29.1 µM [activator, single point]	–
O=C(Nc1cccc(NC(=O)c2ccco2)c1)c1ccc2c(c1)OCCO2	–	inconclusive: -21.9%
